The subject of this data set is Complex IV subunits and interacting proteins. The data set can be described thus: Mass spectrometric identification of proteins immunocaptured with Complex IV (Tables 9, 10). The note with it: Complex IV immunocaptured from bovine heart mitochondria; for Observed chymotryptic % cov / Observed tryptic % cov: LC-MS/MS; for Observed chymotryptic % cov: chymotrypsin digest; for Observed tryptic % cov: trypsin digest; for Total cov.: trypsin and chymotrypsin combined.

Data on two substances can be found in patent US20050153381A1, “Immunocapture of mitochondrial protein complexes” (priority 2002, published 2005).

On to “VIIa H (FQNRVREKQKLFQEDNDIPLYLKGGIVDNILYRVTMTLCLGGTVYSLYSLGWASFPRN; UniProt P24310 22-79, looked up)”, for which the “Observed chymotryptic % cov” value is on record as 46%, the “Observed tryptic % cov” value is on record as 38% and the Total cov. came to 50%.
For VIa-H the same measures were 65%, 42% and 74%.
